Test results: the supplement of paper PMC7238544
Where a name gives a salt, the structure may show the parent alone. ± gives the standard deviation of the averaged measurements. Some of the results follow. The data scatter; read single values as rough.

system: hAMSC donor 1; assay: Hoechst total cell count ratio vs vehicle control; hAMSC are human adipose-derived mesenchymal stem cells given an EGFP-luciferase plasmid by lipofection; higher = more cells (less toxicity); settings: priming compound concentration 13 µM

| Compound | Hoechst total cell count ratio |
| --- | --- |
| CC[C@@H](CO)NCCN[C@@H](CC)CO [Ethambutol] | 1.22 ± 0.12 |
| O=C(O)CCCc1ccccc1 [4-Phenylbutyric acid] | 1.17 ± 0.065 |
| O=c1c(-c2ccccc2)c1-c1ccccc1 [Diphenylcyclopropenone] | 0.739 ± 0.038 |
| CC(C)(C(=O)c1cccnc1)c1cccnc1 [Metyrapone] | 0.932 ± 0.079 |
| COc1c(N2CCNC(C)C2)c(F)cc2c(=O)c(C(=O)O)cn(C3CC3)c12 (stereo unspecified) [Gatifloxacin] | 1.16 ± 0.02 |
| Cc1cnc(C(=O)NCCc2ccc(S(=O)(=O)NC(=O)NC3CCCCC3)cc2)cn1 [Glipizide] | 1.02 ± 0.17 |
| Clc1ccc(CO/N=C(\Cn2ccnc2)c2ccc(Cl)cc2Cl)c(Cl)c1 [Oxiconazole nitrate] | 1.27 ± 0.054 |
| CN1CCN(CCCN2c3ccccc3Sc3ccc(Cl)cc32)CC1 [Prochlorperazine maleate] | 1.07 ± 0.065 |
| C=C1/C(=C\C=C2/CCC[C@]3(C)[C@@H]([C@H](C)CCCC(C)(C)O)CC[C@@H]23)C[C@@H](O)C[C@@H]1O [Calcitriol] | 0.843 ± 0.083 |
| C#C[C@]1(O)CC[C@H]2[C@@H]3CCc4cc(OC)ccc4[C@H]3CC[C@@]21C [Mestranol] | 1.19 ± 0.072 |
| Nc1ccn([C@@H]2O[C@H](CO)[C@@H](O)[C@@H]2O)c(=O)n1 [Cytarabine] | 1.12 ± 0.049 |
| COc1cccc2c1C(=O)c1c(O)c3c(c(O)c1C2=O)C[C@@](O)(C(C)=O)C[C@@H]3O[C@H]1C[C@H](N)[C@H](O)[C@H](C)O1 [Daunorubicin hydrochloride] | 0.116 ± 0.021 |
| CC/C(=C(\c1ccccc1)c1ccc(OCCN(C)C)cc1)c1ccccc1 [Tamoxifen] | 1.352 ± 0.005 |
| COc1ccc(CN2CCN(C(c3ccc(F)cc3)c3ccc(F)cc3)CC2)c(OC)c1OC [Lomerizine dihydrochloride] | 1.14 ± 0.088 |
| CC(C)NCC(O)COc1cccc2ccccc12 (stereo unspecified) [Propranolol hydrochloride] | 1.25 ± 0.1 |
| CN[C@@H]1[C@H](O)[C@H](NC)[C@H]2O[C@@]3(O)C(=O)C[C@@H](C)O[C@H]3O[C@@H]2[C@H]1O [Spectinomycin] | 1.36 ± 0.083 |
| C=C[C@H]1CN2CC[C@H]1C[C@@H]2[C@@H](O)c1ccnc2ccc(OC)cc12 [Quinidine] | 1.17 ± 0.089 |

| Compound | Hoechst total cell count ratio |
| --- | --- |
| N[C@@H]1CONC1=O [D-Cycloserine] | 1.53 ± 0.23 |
| CC(C)NCC(O)c1ccc(O)c(O)c1 (stereo unspecified) [Isoproterenol hydrochloride] | 1.27 ± 0.072 |
| NC(=O)c1cccnc1 [Nicotinamide] | 1.1 ± 0.15 |
| CC(=O)Oc1ccccc1C(=O)Nc1ncc([N+](=O)[O-])s1 [Nitazoxanide] | 1.03 ± 0.022 |
| Cc1nc2ccccn2c(=O)c1CCN1CCC(C(=O)c2ccc(F)cc2)CC1 [Pirenperone] | 1.64 ± 0.25 |
| CC(C)(C(=O)O)c1ccc(C(O)CCCN2CCC(C(O)(c3ccccc3)c3ccccc3)CC2)cc1 (stereo unspecified) [Fexofenadine hydrochloride] | 1.2 ± 0.25 |
| CC1CNc2c(cccc2S(=O)(=O)N[C@@H](CCCNC(=N)N)C(=O)N2CC[C@@H](C)C[C@@H]2C(=O)O)C1 (stereo partly specified) [Argatroban] | 1.22 ± 0.24 |
| O=c1[nH]cnc2c1ncn2[C@H]1CC[C@@H](CO)O1 [Didanosine] | 1.6 ± 0.1 |
| CC(C)NCC(O)COc1ccc(COCCOC(C)C)cc1 (stereo unspecified) [Bisoprolol fumarate] | 1.45 ± 0.05 |
| CCN1CCN(c2cc3c(cc2F)c(=O)c(C(=O)O)cn3C2CC2)CC1 [Enrofloxacin] | 1.05 ± 0.14 |
| O=C1N(c2ccccc2)c2ccccc2C1(Cc1ccncc1)Cc1ccncc1 [Linopirdine dihydrochloride] | 1.23 ± 0.028 |
| CN(C)CCC=C1c2ccccc2COc2ccccc21 [Doxepin hydrochloride] | 1.55 ± 0.14 |
| C[C@@H]1CN(CCCn2c3ccccc3c3ccccc32)C[C@H](C)N1 [Rimcazole dihydrochloride] | 1.23 ± 0.18 |
| Nc1nc2ccc(OC(F)(F)F)cc2s1 [Riluzole hydrochloride] | 1.21 ± 0.12 |
| NC(N)=Nc1nc(CSCC/C(N)=N/S(N)(=O)=O)cs1 [Famotidine] | 0.992 ± 0.082 |
| CN(C)CCN(Cc1ccccc1)c1ccccn1 [Tripelennamine hydrochloride] | 1.31 ± 0.3 |

system: hAMSC donor 2; assay: as above; settings: priming compound concentration 0.2 µM

| Compound | Hoechst total cell count ratio |
| --- | --- |
| O=C1NC(=O)C(c2ccccc2)(c2ccccc2)N1 [Dilantin] | 1.14 ± 0.13 |
| CC(C)C[C@H](NC(=O)[C@@H](COC(C)(C)C)NC(=O)[C@H](Cc1ccc(O)cc1)NC(=O)[C@H](CO)NC(=O)[C@H](Cc1c[nH]c2ccccc12)NC(=O)[C@H](Cc1cnc[nH]1)NC(=O)[C@@H]1CCC(=O)N1)C(=O)N[C@@H](CCCNC(=N)N)C(=O)N1CCC[C@H]1C(=O)NNC(N)=O [Goserelin acetate] | 1.36 ± 0.21 |
| O=C1CN(/N=C/c2ccc(-c3ccc([N+](=O)[O-])cc3)o2)C(=O)N1 [Dantrolene sodium] | 1.17 ± 0.088 |
| CCN(CC)CC(=O)Nc1c(C)cccc1C [Lidocaine] | 1.29 ± 0.058 |
| C=CC[C@@H]1/C=C(\C)C[C@H](C)C[C@H](OC)[C@H]2O[C@@](O)(C(=O)C(=O)N3CCCC[C@H]3C(=O)O[C@H](/C(C)=C/[C@@H]3CC[C@@H](O)[C@H](OC)C3)[C@H](C)[C@@H](O)CC1=O)[C@H](C)C[C@@H]2OC [Tacrolimus] | 1.11 ± 0.29 |
| CC[C@@H](CO)NCCN[C@@H](CC)CO [Ethambutol] | 1.16 ± 0.19 |
| O=C(O)CCCc1ccccc1 [4-Phenylbutyric acid] | 0.803 ± 0.11 |
| O=c1c(-c2ccccc2)c1-c1ccccc1 [Diphenylcyclopropenone] | 1.34 ± 0.16 |
| CC(C)(C(=O)c1cccnc1)c1cccnc1 [Metyrapone] | 1.14 ± 0.073 |
| COc1c(N2CCNC(C)C2)c(F)cc2c(=O)c(C(=O)O)cn(C3CC3)c12 (stereo unspecified) [Gatifloxacin] | 1.222 ± 0.006 |
| Cc1cnc(C(=O)NCCc2ccc(S(=O)(=O)NC(=O)NC3CCCCC3)cc2)cn1 [Glipizide] | 0.962 ± 0.19 |
| Clc1ccc(CO/N=C(\Cn2ccnc2)c2ccc(Cl)cc2Cl)c(Cl)c1 [Oxiconazole nitrate] | 1.15 ± 0.11 |
| CN1CCN(CCCN2c3ccccc3Sc3ccc(Cl)cc32)CC1 [Prochlorperazine maleate] | 1.21 ± 0.06 |
| C=C1/C(=C\C=C2/CCC[C@]3(C)[C@@H]([C@H](C)CCCC(C)(C)O)CC[C@@H]23)C[C@@H](O)C[C@@H]1O [Calcitriol] | 1.09 ± 0.15 |
| C#C[C@]1(O)CC[C@H]2[C@@H]3CCc4cc(OC)ccc4[C@H]3CC[C@@]21C [Mestranol] | 0.978 ± 0.15 |
| Nc1ccn([C@@H]2O[C@H](CO)[C@@H](O)[C@@H]2O)c(=O)n1 [Cytarabine] | 1.36 ± 0.2 |
| COc1cccc2c1C(=O)c1c(O)c3c(c(O)c1C2=O)C[C@@](O)(C(C)=O)C[C@@H]3O[C@H]1C[C@H](N)[C@H](O)[C@H](C)O1 [Daunorubicin hydrochloride] | 0.395 ± 0.03 |
| CC/C(=C(\c1ccccc1)c1ccc(OCCN(C)C)cc1)c1ccccc1 [Tamoxifen] | 1.15 ± 0.12 |
| COc1ccc(CN2CCN(C(c3ccc(F)cc3)c3ccc(F)cc3)CC2)c(OC)c1OC [Lomerizine dihydrochloride] | 1.32 ± 0.56 |

| Compound | Hoechst total cell count ratio |
| --- | --- |
| CC(C)NCC(O)COc1cccc2ccccc12 (stereo unspecified) [Propranolol hydrochloride] | 1.08 ± 0.035 |
| CN[C@@H]1[C@H](O)[C@H](NC)[C@H]2O[C@@]3(O)C(=O)C[C@@H](C)O[C@H]3O[C@@H]2[C@H]1O [Spectinomycin] | 1.35 ± 0.12 |
| C=C[C@H]1CN2CC[C@H]1C[C@@H]2[C@@H](O)c1ccnc2ccc(OC)cc12 [Quinidine] | 1.06 ± 0.035 |
| N[C@@H]1CONC1=O [D-Cycloserine] | 1.44 ± 0.15 |
| CC(C)NCC(O)c1ccc(O)c(O)c1 (stereo unspecified) [Isoproterenol hydrochloride] | 1.11 ± 0.12 |
| NC(=O)c1cccnc1 [Nicotinamide] | 1.18 ± 0.05 |
| CC(=O)Oc1ccccc1C(=O)Nc1ncc([N+](=O)[O-])s1 [Nitazoxanide] | 1.01 ± 0.073 |
| Cc1nc2ccccn2c(=O)c1CCN1CCC(C(=O)c2ccc(F)cc2)CC1 [Pirenperone] | 1.02 ± 0.13 |
| CC(C)(C(=O)O)c1ccc(C(O)CCCN2CCC(C(O)(c3ccccc3)c3ccccc3)CC2)cc1 (stereo unspecified) [Fexofenadine hydrochloride] | 1.09 ± 0.1 |
| CC1CNc2c(cccc2S(=O)(=O)N[C@@H](CCCNC(=N)N)C(=O)N2CC[C@@H](C)C[C@@H]2C(=O)O)C1 (stereo partly specified) [Argatroban] | 1.12 ± 0.12 |
| O=c1[nH]cnc2c1ncn2[C@H]1CC[C@@H](CO)O1 [Didanosine] | 1.2 ± 0.23 |
| CC(C)NCC(O)COc1ccc(COCCOC(C)C)cc1 (stereo unspecified) [Bisoprolol fumarate] | 1.28 ± 0.059 |
| CCN1CCN(c2cc3c(cc2F)c(=O)c(C(=O)O)cn3C2CC2)CC1 [Enrofloxacin] | 1.12 ± 0.094 |
| O=C1N(c2ccccc2)c2ccccc2C1(Cc1ccncc1)Cc1ccncc1 [Linopirdine dihydrochloride] | 1.36 ± 0.095 |
| CN(C)CCC=C1c2ccccc2COc2ccccc21 [Doxepin hydrochloride] | 1.19 ± 0.035 |
| C[C@@H]1CN(CCCn2c3ccccc3c3ccccc32)C[C@H](C)N1 [Rimcazole dihydrochloride] | 1.23 ± 0.098 |
| Nc1nc2ccc(OC(F)(F)F)cc2s1 [Riluzole hydrochloride] | 1.04 ± 0.1 |
| NC(N)=Nc1nc(CSCC/C(N)=N/S(N)(=O)=O)cs1 [Famotidine] | 0.915 ± 0.093 |
| CN(C)CCN(Cc1ccccc1)c1ccccn1 [Tripelennamine hydrochloride] | 1.42 ± 0.084 |
